Reference: the supplement of paper PMC10849652
The other results are listed elsewhere or left out.

Protein sequences, listed by entry. Tags and fused reporters are not part of them. Lines headed by an entry give the natural chain unless they say otherwise; changes in a name come on top.
UniProt Q6P4H8: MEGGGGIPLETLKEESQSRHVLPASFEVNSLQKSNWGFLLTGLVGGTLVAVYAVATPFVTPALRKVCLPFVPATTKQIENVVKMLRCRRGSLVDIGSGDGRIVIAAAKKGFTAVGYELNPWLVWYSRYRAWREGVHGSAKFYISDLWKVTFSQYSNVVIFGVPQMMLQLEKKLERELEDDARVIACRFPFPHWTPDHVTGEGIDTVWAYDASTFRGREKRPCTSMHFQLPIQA
UniProt Q53RT3: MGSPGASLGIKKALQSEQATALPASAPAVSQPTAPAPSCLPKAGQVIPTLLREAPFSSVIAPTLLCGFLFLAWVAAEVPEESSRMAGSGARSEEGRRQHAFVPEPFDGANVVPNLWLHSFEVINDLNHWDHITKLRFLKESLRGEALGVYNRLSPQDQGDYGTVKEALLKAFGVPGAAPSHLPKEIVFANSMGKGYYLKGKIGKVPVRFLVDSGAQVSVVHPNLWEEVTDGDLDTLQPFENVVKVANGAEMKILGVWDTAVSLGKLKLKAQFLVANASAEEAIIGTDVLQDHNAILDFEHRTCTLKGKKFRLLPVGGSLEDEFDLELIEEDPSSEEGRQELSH
UniProt Q99941: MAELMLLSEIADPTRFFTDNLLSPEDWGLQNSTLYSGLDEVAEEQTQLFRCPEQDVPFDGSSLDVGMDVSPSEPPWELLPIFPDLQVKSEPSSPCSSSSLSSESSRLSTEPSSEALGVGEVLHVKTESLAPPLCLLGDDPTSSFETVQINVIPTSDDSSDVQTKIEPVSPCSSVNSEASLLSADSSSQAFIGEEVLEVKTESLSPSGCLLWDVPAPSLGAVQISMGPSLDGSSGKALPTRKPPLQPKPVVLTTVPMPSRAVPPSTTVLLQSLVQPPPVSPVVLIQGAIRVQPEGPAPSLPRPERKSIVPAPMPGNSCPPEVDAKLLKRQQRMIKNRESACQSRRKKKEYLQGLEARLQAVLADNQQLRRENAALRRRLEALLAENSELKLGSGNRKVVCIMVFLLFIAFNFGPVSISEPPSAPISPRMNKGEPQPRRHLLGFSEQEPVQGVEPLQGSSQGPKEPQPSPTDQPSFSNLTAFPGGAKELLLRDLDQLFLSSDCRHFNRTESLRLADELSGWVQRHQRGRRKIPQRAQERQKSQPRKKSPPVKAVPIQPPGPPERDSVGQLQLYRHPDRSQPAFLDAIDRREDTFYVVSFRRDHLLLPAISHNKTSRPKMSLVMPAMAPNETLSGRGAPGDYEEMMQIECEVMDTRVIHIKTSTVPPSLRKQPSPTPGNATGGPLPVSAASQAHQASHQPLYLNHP
UniProt Q9ULI0: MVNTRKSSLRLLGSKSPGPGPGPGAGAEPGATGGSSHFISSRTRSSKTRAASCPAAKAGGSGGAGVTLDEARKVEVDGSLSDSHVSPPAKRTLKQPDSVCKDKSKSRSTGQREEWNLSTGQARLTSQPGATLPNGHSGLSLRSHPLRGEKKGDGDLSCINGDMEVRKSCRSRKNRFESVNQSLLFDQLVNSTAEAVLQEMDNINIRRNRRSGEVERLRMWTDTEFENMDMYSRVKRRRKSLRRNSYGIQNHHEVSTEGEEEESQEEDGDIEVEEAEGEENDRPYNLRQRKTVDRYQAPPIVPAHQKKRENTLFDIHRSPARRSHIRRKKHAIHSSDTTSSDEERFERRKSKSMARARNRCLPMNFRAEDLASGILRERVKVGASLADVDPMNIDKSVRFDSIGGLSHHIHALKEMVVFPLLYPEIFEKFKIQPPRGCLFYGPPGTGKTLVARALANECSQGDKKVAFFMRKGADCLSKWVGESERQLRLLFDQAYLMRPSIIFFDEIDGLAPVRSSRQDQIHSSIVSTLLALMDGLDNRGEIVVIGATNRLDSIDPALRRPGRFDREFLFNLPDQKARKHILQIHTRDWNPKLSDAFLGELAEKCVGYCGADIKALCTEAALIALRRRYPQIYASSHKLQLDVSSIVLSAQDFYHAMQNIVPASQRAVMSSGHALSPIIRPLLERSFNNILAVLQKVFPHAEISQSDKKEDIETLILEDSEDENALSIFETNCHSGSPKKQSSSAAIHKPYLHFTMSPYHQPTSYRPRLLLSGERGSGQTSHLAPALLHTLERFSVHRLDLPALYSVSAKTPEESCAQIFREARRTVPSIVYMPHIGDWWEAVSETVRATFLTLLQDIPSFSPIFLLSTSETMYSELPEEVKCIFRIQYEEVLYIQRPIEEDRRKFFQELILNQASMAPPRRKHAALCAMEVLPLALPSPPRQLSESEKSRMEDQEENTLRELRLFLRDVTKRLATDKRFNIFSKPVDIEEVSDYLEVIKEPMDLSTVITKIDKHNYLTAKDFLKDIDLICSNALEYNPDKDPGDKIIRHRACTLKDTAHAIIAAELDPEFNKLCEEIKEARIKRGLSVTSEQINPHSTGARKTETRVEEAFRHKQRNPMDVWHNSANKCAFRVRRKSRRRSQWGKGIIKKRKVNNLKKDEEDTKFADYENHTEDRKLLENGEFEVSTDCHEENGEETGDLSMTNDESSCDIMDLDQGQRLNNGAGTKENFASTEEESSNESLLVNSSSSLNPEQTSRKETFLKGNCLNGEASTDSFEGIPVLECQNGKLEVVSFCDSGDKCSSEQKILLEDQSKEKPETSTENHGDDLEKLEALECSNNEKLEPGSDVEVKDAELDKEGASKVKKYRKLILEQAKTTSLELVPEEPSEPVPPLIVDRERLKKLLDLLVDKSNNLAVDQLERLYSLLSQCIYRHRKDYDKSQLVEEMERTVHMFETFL
UniProt Q8IZT6: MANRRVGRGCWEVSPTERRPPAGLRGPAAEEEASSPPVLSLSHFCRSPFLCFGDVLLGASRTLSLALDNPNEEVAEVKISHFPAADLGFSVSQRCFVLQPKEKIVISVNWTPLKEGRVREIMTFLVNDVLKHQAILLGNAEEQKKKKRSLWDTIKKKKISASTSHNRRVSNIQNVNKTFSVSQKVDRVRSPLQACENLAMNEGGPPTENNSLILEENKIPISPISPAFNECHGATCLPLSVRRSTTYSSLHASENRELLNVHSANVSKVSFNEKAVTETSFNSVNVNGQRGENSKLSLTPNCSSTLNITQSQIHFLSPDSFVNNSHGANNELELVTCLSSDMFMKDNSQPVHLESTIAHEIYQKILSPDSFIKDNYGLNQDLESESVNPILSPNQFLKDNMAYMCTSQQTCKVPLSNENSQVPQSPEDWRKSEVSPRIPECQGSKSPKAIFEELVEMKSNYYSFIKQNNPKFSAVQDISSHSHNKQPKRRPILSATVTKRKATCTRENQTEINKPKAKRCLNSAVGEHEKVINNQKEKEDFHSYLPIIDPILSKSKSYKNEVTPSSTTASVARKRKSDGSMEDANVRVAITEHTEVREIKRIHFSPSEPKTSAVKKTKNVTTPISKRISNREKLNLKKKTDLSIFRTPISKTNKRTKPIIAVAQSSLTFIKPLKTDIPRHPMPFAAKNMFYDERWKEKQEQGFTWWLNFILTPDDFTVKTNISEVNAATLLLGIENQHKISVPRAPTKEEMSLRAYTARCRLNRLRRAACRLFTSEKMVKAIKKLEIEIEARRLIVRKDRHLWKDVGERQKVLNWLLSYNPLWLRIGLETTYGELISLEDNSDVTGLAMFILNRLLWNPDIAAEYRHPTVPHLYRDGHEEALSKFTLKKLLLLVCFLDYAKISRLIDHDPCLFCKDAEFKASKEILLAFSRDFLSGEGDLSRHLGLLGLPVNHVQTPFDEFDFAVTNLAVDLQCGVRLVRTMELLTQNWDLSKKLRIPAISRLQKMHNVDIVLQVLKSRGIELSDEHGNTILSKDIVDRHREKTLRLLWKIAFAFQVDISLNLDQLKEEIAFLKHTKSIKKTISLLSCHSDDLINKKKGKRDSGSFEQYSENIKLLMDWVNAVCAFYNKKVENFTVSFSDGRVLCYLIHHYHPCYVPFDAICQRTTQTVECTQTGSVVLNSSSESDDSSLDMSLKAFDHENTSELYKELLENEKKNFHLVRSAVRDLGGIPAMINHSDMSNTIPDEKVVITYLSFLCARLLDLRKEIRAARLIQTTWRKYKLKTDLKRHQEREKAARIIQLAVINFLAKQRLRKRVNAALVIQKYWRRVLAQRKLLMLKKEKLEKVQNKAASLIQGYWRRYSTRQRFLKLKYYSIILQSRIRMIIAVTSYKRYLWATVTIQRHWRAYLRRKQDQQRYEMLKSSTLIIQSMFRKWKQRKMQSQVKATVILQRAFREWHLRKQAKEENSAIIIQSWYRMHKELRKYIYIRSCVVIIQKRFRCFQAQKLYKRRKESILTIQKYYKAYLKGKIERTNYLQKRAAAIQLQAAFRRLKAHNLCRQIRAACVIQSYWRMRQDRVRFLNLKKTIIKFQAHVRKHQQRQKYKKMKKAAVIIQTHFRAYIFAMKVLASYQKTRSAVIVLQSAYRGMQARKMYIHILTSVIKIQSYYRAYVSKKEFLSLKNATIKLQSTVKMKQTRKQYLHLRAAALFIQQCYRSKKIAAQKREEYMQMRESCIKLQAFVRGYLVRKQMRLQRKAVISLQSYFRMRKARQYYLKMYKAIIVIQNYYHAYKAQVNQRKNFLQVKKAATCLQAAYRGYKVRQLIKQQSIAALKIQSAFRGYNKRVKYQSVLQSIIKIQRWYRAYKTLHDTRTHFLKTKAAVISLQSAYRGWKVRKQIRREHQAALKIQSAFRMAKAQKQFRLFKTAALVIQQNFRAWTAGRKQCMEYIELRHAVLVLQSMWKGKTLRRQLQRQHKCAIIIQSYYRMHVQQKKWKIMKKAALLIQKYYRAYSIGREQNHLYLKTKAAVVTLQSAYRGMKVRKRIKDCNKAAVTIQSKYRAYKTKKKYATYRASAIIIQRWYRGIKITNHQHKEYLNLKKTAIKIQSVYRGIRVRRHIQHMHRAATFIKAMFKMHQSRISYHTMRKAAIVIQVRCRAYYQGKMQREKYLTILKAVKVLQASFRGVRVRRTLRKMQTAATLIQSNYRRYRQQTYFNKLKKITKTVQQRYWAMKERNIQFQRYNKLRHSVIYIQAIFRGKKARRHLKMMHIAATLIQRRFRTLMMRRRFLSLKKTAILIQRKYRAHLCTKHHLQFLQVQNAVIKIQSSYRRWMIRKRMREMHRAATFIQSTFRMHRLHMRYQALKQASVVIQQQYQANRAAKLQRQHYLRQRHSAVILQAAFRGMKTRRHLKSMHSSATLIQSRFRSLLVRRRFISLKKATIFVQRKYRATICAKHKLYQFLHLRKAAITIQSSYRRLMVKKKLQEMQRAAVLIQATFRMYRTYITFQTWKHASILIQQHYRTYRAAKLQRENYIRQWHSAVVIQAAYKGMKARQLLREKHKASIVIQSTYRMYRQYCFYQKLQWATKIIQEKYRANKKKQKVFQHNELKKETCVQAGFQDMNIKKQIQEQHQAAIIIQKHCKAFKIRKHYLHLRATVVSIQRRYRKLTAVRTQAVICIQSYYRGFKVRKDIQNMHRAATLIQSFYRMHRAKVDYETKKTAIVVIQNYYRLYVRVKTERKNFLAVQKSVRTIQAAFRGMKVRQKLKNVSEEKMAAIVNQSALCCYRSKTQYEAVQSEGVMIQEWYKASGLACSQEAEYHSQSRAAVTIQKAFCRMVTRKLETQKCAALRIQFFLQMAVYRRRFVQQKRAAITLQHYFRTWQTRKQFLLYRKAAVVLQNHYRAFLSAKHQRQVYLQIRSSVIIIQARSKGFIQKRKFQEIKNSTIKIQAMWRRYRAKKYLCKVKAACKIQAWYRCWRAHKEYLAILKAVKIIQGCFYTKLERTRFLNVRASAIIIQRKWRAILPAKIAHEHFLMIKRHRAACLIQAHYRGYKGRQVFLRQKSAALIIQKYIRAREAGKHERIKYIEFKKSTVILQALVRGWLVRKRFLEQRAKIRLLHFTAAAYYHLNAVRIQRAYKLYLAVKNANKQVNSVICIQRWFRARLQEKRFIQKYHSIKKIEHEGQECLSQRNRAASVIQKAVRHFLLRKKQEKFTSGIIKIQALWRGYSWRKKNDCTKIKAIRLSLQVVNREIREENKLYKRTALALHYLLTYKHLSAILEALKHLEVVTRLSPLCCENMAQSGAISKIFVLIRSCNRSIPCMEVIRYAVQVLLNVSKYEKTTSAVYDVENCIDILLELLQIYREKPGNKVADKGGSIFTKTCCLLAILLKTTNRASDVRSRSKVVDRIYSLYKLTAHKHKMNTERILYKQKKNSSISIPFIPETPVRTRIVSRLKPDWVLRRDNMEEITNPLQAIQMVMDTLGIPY
UniProt Q96DX5: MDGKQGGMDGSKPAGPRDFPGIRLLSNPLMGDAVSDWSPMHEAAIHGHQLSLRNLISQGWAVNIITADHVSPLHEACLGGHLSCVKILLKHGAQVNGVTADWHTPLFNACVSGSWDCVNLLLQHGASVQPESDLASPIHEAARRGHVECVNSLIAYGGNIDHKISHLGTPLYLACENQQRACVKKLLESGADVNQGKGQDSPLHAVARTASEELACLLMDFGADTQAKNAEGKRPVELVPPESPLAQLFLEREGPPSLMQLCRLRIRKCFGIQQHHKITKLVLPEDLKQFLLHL

Experiments:
Test in all cases: log2 fold change, soluble protein after heating vs DMSO (PISA); higher = thermal stabilisation; K562 lysate, 10 uM; active = over 0.2 and 3.5 SD of the protein, either way, in both replicates (recomputed)
lapatinib = compound: CS(=O)(=O)CCNCc1ccc(-c2ccc3ncnc(Nc4ccc(OCc5cccc(F)c5)c(Cl)c4)c3c2)o1 [lapatinib]
How it was run: (§1)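 The values are log-two fold changes in thermal stability compared with solvent controls and come from duplicates. They were obtained by TMTpro 16plex LC-MS/MS, with channel sums equalised, on the supernatant after 21,000xg for 90 min. That supernatant came from crude K562 extract at 1 mg/mL protein treated with 10 μM compound for 30 min, heated for 3 min across 48°C-58°C, pooled and brought to 0.5% NP-40 at 4°C.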

crizotinib = compound: C[C@@H](Oc1cc(-c2cnn(C3CCNCC3)c2)cnc1N)c1c(Cl)ccc(F)c1Cl [crizotinib]
How it was run: as §1

doramapimod = compound: Cc1ccc(-n2nc(C(C)(C)C)cc2NC(=O)Nc2ccc(OCCN3CCOCC3)c3ccccc23)cc1 [doramapimod]
How it was run: as §1

quisinostat = compound: Cn1cc(CNCC2CCN(c3ncc(C(=O)NO)cn3)CC2)c2ccccc21 [quisinostat]
How it was run: as §1

[1] = compound: NC(=O)Nc1cc(-c2cccc(F)c2)sc1C(=O)N[C@H]1CCCNC1
How it was run: as §1

[2] = compound: NC(=O)c1cnc(N[C@@H]2CCCC[C@@H]2N)nc1Nc1cccc(-n2nccn2)c1
How it was run: as §1

pictilisib = compound: CS(=O)(=O)N1CCN(Cc2cc3nc(-c4cccc5[nH]ncc45)nc(N4CCOCC4)c3s2)CC1 [pictilisib]
How it was run: as §1

duvelisib = compound: C[C@H](Nc1ncnc2nc[nH]c12)c1cc2cccc(Cl)c2c(=O)n1-c1ccccc1 [duvelisib]
How it was run: as §1

tozasertib = compound: Cc1cc(Nc2cc(N3CCN(C)CC3)nc(Sc3ccc(NC(=O)C4CC4)cc3)n2)n[nH]1 [tozasertib]
How it was run: as §1

bafetinib = compound: Cc1ccc(NC(=O)c2ccc(CN3CC[C@H](N(C)C)C3)c(C(F)(F)F)c2)cc1Nc1nccc(-c2cncnc2)n1 [bafetinib]
How it was run: as §1

dasatinib = compound: Cc1nc(Nc2ncc(C(=O)Nc3c(C)cccc3Cl)s2)cc(N2CCN(CCO)CC2)n1 [dasatinib]
How it was run: as §1

[3] = compound: Cn1cc(-c2ccc3c(c2)CCN3C(=O)Cc2cccc(C(F)(F)F)c2)c2c(N)ncnc21
How it was run: as §1

[4] = compound: NC1(c2ccc(-c3nc4ccn5c(=O)[nH]nc5c4cc3-c3ccccc3)cc2)CCC1
How it was run: as §1

[5] = compound: C[C@H](C1=CC=C(C=C1)C(=O)NC2=C3C=CNC3=NC=C2)N
How it was run: as §1

gandotinib = compound: Cc1cc(Nc2cc(CN3CCOCC3)c3nc(C)c(Cc4ccc(Cl)cc4F)n3n2)n[nH]1 [gandotinib]
How it was run: as §1

[6] = compound: Cc1cccc(CC(=O)N2CCc3c2ccc(-c2cn(C)c4ncnc(N)c24)c3F)n1
How it was run: as §1

nilotinib = compound: Cc1cn(-c2cc(NC(=O)c3ccc(C)c(Nc4nccc(-c5cccnc5)n4)c3)cc(C(F)(F)F)c2)cn1 [nilotinib]
How it was run: as §1

[7] = compound: Cc1nc(Nc2n[nH]c3c2CN(C(=O)N[C@H](CN(C)C)c2ccccc2)C3(C)C)c2sccc2n1
How it was run: as §1

[8] = compound: Cc1ncc(-c2ccnc(Nc3ccc(S(C)(=O)=O)cc3)n2)n1C(C)C
How it was run: as §1

tipifarnib = compound: Cn1cncc1[C@@](N)(c1ccc(Cl)cc1)c1ccc2c(c1)c(-c1cccc(Cl)c1)cc(=O)n2C [tipifarnib]
How it was run: as §1

Measured: log2 fold change

ASTE1 (UniProt Q2TB18)
inactive: lapatinib 0.028 | crizotinib -0.009 | doramapimod 0.037 | quisinostat -0.069 | [1] 0.332 | [2] -0.02

ATPSCKMT (UniProt Q6P4H8)
inactive: pictilisib -0.113 | crizotinib -0.039 | duvelisib -0.036 | tozasertib -0.219 | doramapimod 0.022 | bafetinib -0.034 | dasatinib 0.052 | [3] -0.021 | quisinostat 0.018 | [1] 0.001

ASPRV1 (UniProt Q53RT3)
inactive: [4] 0.046

ATF6B (UniProt Q99941)
inactive: crizotinib -0.238 | doramapimod 0 | quisinostat -0.091 | [1] 0.135

ATAD2B (UniProt Q9ULI0)
inactive: pictilisib -0.329 | bafetinib 0.047

ATG4D (UniProt Q86TL0)
active: [3] -0.57
inactive: pictilisib -0.054 | crizotinib -0.031 | duvelisib 0.109 | tozasertib 0.099 | doramapimod -0.072 | bafetinib -0.056 | dasatinib -0.037 | quisinostat -0.085 | [1] 0.084

ASPM (UniProt Q8IZT6)
inactive: lapatinib 0 | crizotinib 0.017 | [5] 0.007 | duvelisib -0.022 | gandotinib -0.03 | tozasertib -0.031 | doramapimod -0.017 | [6] -0.024 | nilotinib -0.018 | [7] 0.006 | dasatinib 0.075 | [8] 0.023 | [3] 0.089 | quisinostat 0.051 | tipifarnib 0.009 | [1] 0.018 | [2] -0.015 | [4] -0.007

ASB9 (UniProt Q96DX5)
inactive: lapatinib 0.198 | [2] -0.114 | [4] -0.168
